Common to all, as to conditions: yeast three-hybrid, YBZ-1, SC-Leu-His + 0.5 mM 3-AT, 4 days
For test [1], the target named is T1, PUM1 PUF domain R2-AVA N899A + Y900V + Q903A (UniProt Q14671).
T1 sequence: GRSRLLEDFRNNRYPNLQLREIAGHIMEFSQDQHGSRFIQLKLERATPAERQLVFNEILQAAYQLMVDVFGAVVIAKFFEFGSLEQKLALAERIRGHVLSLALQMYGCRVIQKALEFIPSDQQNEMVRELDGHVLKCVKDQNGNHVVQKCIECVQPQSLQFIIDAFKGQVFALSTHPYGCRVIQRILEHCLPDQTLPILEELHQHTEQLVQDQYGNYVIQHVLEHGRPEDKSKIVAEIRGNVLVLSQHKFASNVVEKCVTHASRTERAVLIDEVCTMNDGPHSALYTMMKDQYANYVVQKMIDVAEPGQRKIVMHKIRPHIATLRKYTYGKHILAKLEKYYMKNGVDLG

Test [2] deals with T2, PUM1 PUF domain R2-EPW N899E + Y900P + Q903W (UniProt Q14671).
T2 sequence: T1 sequence with A72E, V73P, A76W

Test [3] concerns the target T3, PUM1 PUF domain R2-GFD N899G + Y900F + Q903D (UniProt Q14671).
T3 sequence: T1 sequence with A72G, V73F, A76D

The target in test [4] is T4, PUM1 PUF domain R3-FRG C935F + Q939G (Homo sapiens) (UniProt Q14671).
T4 sequence: T1 sequence with A72N, V73Y, A76Q, C108F, Q112G

In test [5] the target is T5, PUM1 PUF domain R3-FRL C935F + Q939L (Homo sapiens) (UniProt Q14671).
T5 sequence: T1 sequence with A72N, V73Y, A76Q, C108F, Q112L

The target in test [6] is T6, PUM1 PUF domain R3-GCD C935G + R936C + Q939D (Homo sapiens) (UniProt Q14671).
T6 sequence: T1 sequence with A72N, V73Y, A76Q, C108G, R109C, Q112D

Test [7] concerns the target T7, PUM1 PUF domain R3-KSS C935K + R936S + Q939S (Homo sapiens) (UniProt Q14671).
T7 sequence: T1 sequence with A72N, V73Y, A76Q, C108K, R109S, Q112S

In test [8] the target is T8, PUM1 PUF domain R3-LRC C935L + Q939C (Homo sapiens) (UniProt Q14671).
T8 sequence: T1 sequence with A72N, V73Y, A76Q, C108L, Q112C

The target in test [9] is T9, PUM1 PUF domain R3-QPR C935Q + R936P + Q939R (Homo sapiens) (UniProt Q14671).
T9 sequence: T1 sequence with A72N, V73Y, A76Q, C108Q, R109P, Q112R

The target of test [10] is T10, PUM1 PUF domain R3-RAR C935R + R936A + Q939R (Homo sapiens) (UniProt Q14671).
T10 sequence: T1 sequence with A72N, V73Y, A76Q, C108R, R109A, Q112R

For test [11], the target named is T11, PUM1 PUF domain R3-RAS C935R + R936A + Q939S (Homo sapiens) (UniProt Q14671).
T11 sequence: T1 sequence with A72N, V73Y, A76Q, C108R, R109A, Q112S

The target in test [12] is T12, PUM1 PUF domain R3-RQR C935R + R936Q + Q939R (Homo sapiens) (UniProt Q14671).
T12 sequence: T1 sequence with A72N, V73Y, A76Q, C108R, R109Q, Q112R

The target of test [13] is T13, PUM1 PUF domain R3-RRP C935R + Q939P (Homo sapiens) (UniProt Q14671).
T13 sequence: T1 sequence with A72N, V73Y, A76Q, C108R, Q112P

In test [14] the target is T14, PUM1 PUF domain R3-RRR C935R + Q939R (Homo sapiens) (UniProt Q14671).
T14 sequence: T1 sequence with A72N, V73Y, A76Q, C108R, Q112R

Test [15] deals with T15, PUM1 PUF domain R3-RSA C935R + R936S + Q939A (Homo sapiens) (UniProt Q14671).
T15 sequence: T1 sequence with A72N, V73Y, A76Q, C108R, R109S, Q112A

For test [16], the target named is T16, PUM1 PUF domain R3-RSL C935R + R936S + Q939L (Homo sapiens) (UniProt Q14671).
T16 sequence: T1 sequence with A72N, V73Y, A76Q, C108R, R109S, Q112L

Test [17] deals with T17, PUM1 PUF domain R3-RSY C935R + R936S + Q939Y (Homo sapiens) (UniProt Q14671).
T17 sequence: T1 sequence with A72N, V73Y, A76Q, C108R, R109S, Q112Y

The target in test [18] is T18, PUM1 PUF domain R3-TSR C935T + R936S + Q939R (Homo sapiens) (UniProt Q14671).
T18 sequence: T1 sequence with A72N, V73Y, A76Q, C108T, R109S, Q112R

The target of test [19] is T19, PUM1 PUF domain R3-YRW C935Y + Q939W (Homo sapiens) (UniProt Q14671).
T19 sequence: T1 sequence with A72N, V73Y, A76Q, C108Y, Q112W

Test [20] has as its target T20, PUM1 PUF domain R6-SWE N1043S + Y1044W + Q1047E (UniProt Q14671).
T20 sequence: T1 sequence with A72N, V73Y, A76Q, N216S, Y217W, Q220E

Substitutions are numbered along the chain they refer to. Some of the results follow. For some of these results: At the low end of the ranking the order means little.

Turning to “GGCUAGAACUAGUGGAUCCCCCGGCGCCCGGCGGCUCGAGCCCGGGUAAGUGUAAAUAGUCUGCAUGCCGCCGGGCGCCAUGCCUGCAGGUCGACUCUAGAAAACAUG”, the binding signal (log2 enrichment (interaction score)) in test [1] was below -8.36; in test [2], below -7.31; in test [3], below -6.86; in test [4] it was -0.78; in [5] it was 0.32; in [6] it was 0.1. For the same sequence, the binding signal (log2 enrichment (interaction score)) in [7] is -0.53; in test [8], -2.15; in [9], -1.53; in [10], -0.68; in test [11] it was -1.9; in [12] it was -0.8. For the same sequence, the binding signal (log2 enrichment (interaction score)) in [13] was 0.07; in test [14] it was -0.34; in test [15] it was -1.65; in [16] it was -1.92; in test [17] it was -1.01; in test [18], -0.15. The binding signal (log2 enrichment (interaction score)) in test [19] was 0.16; in [20], -5.19.

“GGCUAGAACUAGUGGAUCCCCCGGCGCCCGGCGGCUCGAGCCCGGGUAAGUGUAAAAAGUCUGCAUGCCGCCGGGCGCCAUGCCUGCAGGUCGACUCUAGAAAACAUG”: the binding signal (log2 enrichment (interaction score)) in test [1] was below -9.39; in [2] it was below -6.03; in [3], below -6.94.

In the case of “GGCUAGAACUAGUGGAUCCCCCGGCGCCCGGCGGCUCGAGCCCGGGUAAGUGUAAUUAGUCUGCAUGCCGCCGGGCGCCAUGCCUGCAGGUCGACUCUAGAAAACAUG”, the binding signal (log2 enrichment (interaction score)) in test [4] was 0; in test [5], -0.12; in test [6], -0.01; in test [8] it was 0.32; in test [19], -0.42.

“GGCUAGAACUAGUGGAUCCCCCGGCGCCCGGCGGCUCGAGCCCGGGUAAGUGUAAGUAGUCUGCAUGCCGCCGGGCGCCAUGCCUGCAGGUCGACUCUAGAAAACAUG”: the binding signal (log2 enrichment (interaction score)) in test [7] was found to be 0.22; in test [9] it was 0.44; in test [10] it was 0.38; in test [11], 0.01; in test [12] it was 0.2; in [13] it was 0.4. For the same sequence, the binding signal (log2 enrichment (interaction score)) in test [14] is 0.03; in test [15] it was -0; in test [16], 0.94; in test [17] it was 0.05; in test [18], 0.13.

Take “GGCUAGAACUAGUGGAUCCCCCGGCGCCCGGCGGCUCGAGCCCGGGUAAGUGCAAAUAGUCUGCAUGCCGCCGGGCGCCAUGCCUGCAGGUCGACUCUAGAAAACAUG”: the binding signal (log2 enrichment (interaction score)) in [20] was -4.28.

Values taken from paper PMC8384837.
